Data reported in patent EP2703005A1, “Inhibitors of alpha6 Integrin/E-Cadherin Complex” (Università Degli Studi Di Torino, priority 2012, dated 2014).
These are yes or no findings as the source states them, for the method shown. For part of these data: In cells and extracts the contact can be indirect. Some binding calls cover weakened binding; strength is not graded here.

Chains of the proteins cited; added tags and fusions are not shown. Lines headed by an entry give the natural chain unless they say otherwise; changes in a name come on top.
UniProt P12830: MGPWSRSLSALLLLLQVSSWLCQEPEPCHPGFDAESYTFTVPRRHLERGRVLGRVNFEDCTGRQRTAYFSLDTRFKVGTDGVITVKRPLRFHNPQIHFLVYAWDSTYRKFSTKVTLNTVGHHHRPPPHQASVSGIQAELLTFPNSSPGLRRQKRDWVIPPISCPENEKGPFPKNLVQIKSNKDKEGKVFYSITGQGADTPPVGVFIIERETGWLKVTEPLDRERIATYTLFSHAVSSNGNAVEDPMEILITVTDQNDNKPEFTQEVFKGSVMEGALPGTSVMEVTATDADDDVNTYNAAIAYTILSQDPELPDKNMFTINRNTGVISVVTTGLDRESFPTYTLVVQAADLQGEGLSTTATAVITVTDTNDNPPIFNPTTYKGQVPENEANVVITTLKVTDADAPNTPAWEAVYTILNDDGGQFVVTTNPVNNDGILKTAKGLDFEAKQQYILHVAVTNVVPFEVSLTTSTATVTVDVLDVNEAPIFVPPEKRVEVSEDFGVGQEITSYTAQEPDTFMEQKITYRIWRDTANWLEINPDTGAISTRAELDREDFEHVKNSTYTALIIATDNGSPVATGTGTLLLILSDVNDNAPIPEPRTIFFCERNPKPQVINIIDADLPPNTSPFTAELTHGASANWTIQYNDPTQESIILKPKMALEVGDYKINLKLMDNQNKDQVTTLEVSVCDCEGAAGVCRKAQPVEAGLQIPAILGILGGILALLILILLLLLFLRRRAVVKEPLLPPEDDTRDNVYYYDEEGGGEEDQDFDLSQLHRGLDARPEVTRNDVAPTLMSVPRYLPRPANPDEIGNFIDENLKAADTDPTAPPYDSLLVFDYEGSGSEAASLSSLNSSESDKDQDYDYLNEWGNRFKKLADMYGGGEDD

How the values were obtained:
[1] = target: α6 integrin/E-cadherin receptor complex on NCI-H630 cells (human) (UniProt P23229); experiment: adhesion of silenced NCI-H630 cells to coated recombinant angiopoietin-like 6 (Figure 10C)
[2] = target: E-cadherin (human) (UniProt P12830); experiment: immunoprecipitation with anti-E-cadherin, blot with anti-α6 integrin, pooled liver metastases (Figure 3B)
[3] = target: E-cadherin (human) (UniProt P12830); experiment: co-immunoprecipitation from 5 pooled human liver metastases, immunoblot
[4] = target: E-cadherin (human) (UniProt P12830); experiment: co-immunoprecipitation from NCI-H630 lysate, immunoblot
[5] = target: E-cadherin (human) (UniProt P12830); experiment: summary of confocal imaging and co-immunoprecipitation
[6] = target: E-cadherin (human) (UniProt P12830); experiment: co-immunoprecipitation from NCI-H630 lysate, both directions (Figure 3A)

Measured: binding

B1: recombinant angiopoietin-like 6 (ligand, UniProt Q8NI99 21-470, looked up)
chain: RAGAPRCTYTFVLPPQKFTGAVCWSGPASTRATPEAANASELAALRMRVGRHEELLRELQRLAAADGAVAGEVRALRKESRGLSARLGQLRAQLQHEAGPGAGPGADLGAEPAAALALLGERVLNASAEAQRAAARFHQLDVKFRELAQLVTQQSSLIARLERLCPGGAGGQQQVLPPPPLVPVVPVRLVGSTSDTSRMLDPAPEPQRDQTQRQQEPMASPMPAGHPAVPTKPVGPWQDCAEARQAGHEQSGVYELRVGRHVVSVWCEQQLEGGGWTVIQRRQDGSVNFFTTWQHYKAGFGRPDGEYWLGLEPVYQLTSRGDHELLVLLEDWGGRGARAHYDGFSLEPESDHYRLRLGQYHGDAGDSLSWHNDKPFSTVDRDRDSYSGNCALYQRGGWWYHACAHSNLNGVWHHGGHYRSRYQDGVYWAEFRGGAYSLRKAAMLIRPLKL
binds: [1]

B2: α6 integrin (receptor)
chain: FNLDTREDNVIRKYGDPGSLFGFSLAMHWQLQPEDKRLLLVGAPRAEALPLQRANRTGGLYSCDITARGPCTRIEFDNDADPTSESKEDQWMGVTVQSQGPGGKVVTCAHRYEKRQHVNTKQESRDIFGRCYVLSQNLRIEDDMDGGDWSFCDGRLRGHEKFGSCQQGVAATFTKDFHYIVFGAPGTYNWKGIVRVEQKNNTFFDMNIFEDGPYEVGGETEHDESLVPVPANSYLGFSLDSGKGIVSKDEITFVSGAPRANHSGAVVLLKRDMKSAHLLPEHIFDGEGLASSFGYDVAVVDLNKDGWQDIVIGAPQYFDRDGEVGGAVYVYMNQQGRWNNVKPIRLNGTKDSMFGIAVKNIGDINQDGYPDIAVGAPYDDLGKVFIYHGSANGINTKPTQVLKGISPYFGYSIAGNMDLDRNSYPDVAVGSLSDSVTIFRSRPVINIQKTITVTPNRIDLRQKTACGAPSGICLQVKSCFEYTANPAGYNPSISIVGTLEAEKERRKSGLSSRVQFRNQGSEPKYTQELTLKRQKQKVCMEETLWLQDNIRDKLRPIPITASVEIQEPSSRRRVNSLPEVLPILNSDEPKTAHIDVHFLKEGCGDDNVCNSNLKLEYKFCTREGNQDKFSYLPIQKGVPELVLKDQKDIALEITVTNSPSNPRNPTKDGDDAHEAKLIATFPDTLTYSAYRELRAFPEKQLSCVANQNGSQADCELGNPFKRNSNVTFYLVLSTTEVTFDTPDLDINLKLETTSNQDNLAPITAKAKVVIELLLSVSGVAKPSQVYFGGTVVGEQAMKSEDEVGSLIEYEFRVINLGKPLTNLGTATLNIQWPKEISNGKWLLYLVKVESKGLEKVTCEPQKEINSLNLTESHNSRKKREITEKQIDDNRKFSLFAERKYQTLNCSVNVNCVNIRCPLRGLDSKASLILRSRLWNSTFLEEYSKLNYLDILMRAFIDVTAAAENIRLPNAGTQVRVTVFPSKTVAQYSGVPWWIILVAILAGILMLALLVFILWKCGFFKRNKKDHYDATYHKAEIHAQPSDKERLTSDA
binds: [2] | [3] | [4] | [5] | [6]
